Source: US7354701B2, “Photographic element with speed-enhancing compound” (Eastman Kodak Company, priority 2003, dated 2008)

Tests used:
[1] = Granularity of the green layer in a neutral exposure, RMS method; conditions: TABLE 2, 48 micrometer aperture, density 1.2 log exposure units from the speed point, compound at 0.0806 mmol/m^2 in Layer 9
Protocol: Surfactants, coating aids, emulsion addenda (including 4-hydroxy-6-methyl-1,3,3a,7-tetra-azaindene), sequestrants, thickeners, lubricants, matte and tinting dyes were added to the appropriate layers as is common in the art. Formulae for the identified compounds are provided at the end of these examples. • Layer 1 (Antihalation layer): gelatin at 1.08, colloidal gray silver at 0.150; ILS-1 at 0.097; DYE-1 at 0.029; DYE-2 at 0.065; DYE-3 at 0.021; CH-1 at 0.025 and UV-1 at 0.075. • Layer 2 (Slow cyan layer): a blend of two red-sensitized (all with a mixture of RSD-1 and RSD-2) tabular silver iodobromide emulsions: (i) 0.81×0.11 μm, 4.5 mol % I at 0.400, (ii) 0.62×0.111 μm, 4.1 mol % iodide at 0.175; cyan dye-forming couplers C-1 at 0.248 and C-2 at 0.236; bleach accelerator-releasing coupler B-1 at 0.086; image-modifier DIR-1 at 0.032; OxDS-1 at 0.010 and gelatin at 1.08. • Layer 3 (Mid cyan layer): a red-sensitized (with a mixture of RSD-1 and RSD-2) iodobromide tabular emulsion (1.44×0.13 μm, 3.7 mol % I) at 0.572; C-1 at 0.265; C-2 at 0.103; B-1 at 0.011; DIR-2 at 0.043; masking coupler MC-1 at 0.022 and gelatin at 1.08. • Layer 4 (Fast cyan layer): a red-sensitized (with a mixture of RSD-1, RSD-2 and RSD-3) iodobromide tabular emulsion (2.41×0.13 μm, 3.7 mol % I) at 1.286; C-1 at 0.163; DIR-2 at 0.0.054; B-1 at 0.008 and gelatin at 1.08.
Layer 5 (Ultra-fast cyan layer): a red-sensitized (with a mixture of RSD-1, RSD-2 and RSD-3) iodobromide tabular emulsion (3.87×0.13 μm, 3.7 mol % I) at 1.180; C-2 at 0.175; DIR-3 at 0.060; DIR-4 at 0.001 and gelatin at 1.08. • Layer 6 (Interlayer): ILS-1 at 0.075 and gelatin at 1.08. • Layer 7 (Slow magenta layer): a blend of two green-sensitized (both with a mixture of GSD-1 and GSD-2) silver iodobromide tabular emulsions: (i) 1.17×0.12 μm, 4.5 mol % iodide at 0.156 and (ii) 0.62×0.111 μm, 2.6 mol % iodide at 0.573; magenta dye-forming coupler M-1 at 0.300; MC-2 at 0.090, DIR-5 at 0.032, ILS-1 at 0.011 and gelatin at 1.400. • Layer 8 (Mid magenta layer): a blend of two green-sensitized (both with a mixture of GSD-1 and GSD-2) silver iodobromide tabular emulsions: (i) 2.46×0.13 μm, 3.7 mol % iodide at 0.534 and (ii) 1.45×0.13 μm, 3.7 mol % iodide at 0.370; M-1 at 0.089; MC-2 at 0.086; DIR-5 at 0.025, ILS-1 at 0.012 and gelatin at 1.438. • Layer 9 (Fast magenta layer): two parts mixed together at a 1:1 ratio just prior to coating; Part A (dispersion melt): M-1 at 0.104; DIR-5 at 0.011; ILS-1 at 0.014 and gelatin at 0.420 and Part B (emulsion melt): a green-sensitized (with a mixture of GSD-1 and GSD-2) silver iodobromide tabular emulsion (2.90×0.13 μm, 3.7 mol % iodide) at 1.240; MC-2 at 0.021; DIR-6 at 0.003 and gelatin at 1.076. • Layer 10 (Interlayer): ILS-1 at 0.182 and gelatin at 0.700. • Layer 11 (Slow yellow layer): a blend of three blue-sensitized (all with BSD-1 and BSD-2) tabular silver iodobromide emulsions (i) 2.41×0.1 μm, 2.0 mol % I at 0.402, (ii) 1.02×0.137 μm, 2.0 mol % I at 0.136, (iii) 0.62×0.111 μm, 2.6 mol % I at 0.505; yellow dye-forming coupler Y-1 at 0.850; DIR-1 at 0.022; DIR-7 at 0.038; B-1 at 0.009 and gelatin at 1.90. • Layer 12 (Fast yellow layer): a blue-sensitized (with BSD-1 and BSD-2) tabular silver iodobromide emulsion, 3.72×0.131 μm, 3.7 mol % I at 0.070 and a blue-sensitized (with BSD-1) 3-D silver iodobromide emulsion, 1.21 μM diameter), 9.7 mol % I at 1.055; Y-1 at 0.312; DIR-7 at 0.065; B-1 at 0.011, stabiliser S-1 at 0.008 and gelatin at 1.280. • Layer 13 (WV Filter Layer): silver bromide Lippman emulsion at 0.215; UV-1 and UV-2 both at 0.108 and gelatin at 0.700. • Layer 14 (Protective overcoat): gelatin at 0.888 and bis(vinylsulfonyl)methane hardener at 1.75% of total gelatin weight.
All comparative and heterocyclic compounds for use in the invention were dispersed in twice their own weight in N,N-dibutyllauramide, unless otherwise noted. The resulting dispersions were stirred at 40 C for at least 1 h before coating. […]

[2] = Photographic speed of multilayer films, stepped neutral exposure, C-41 process; conditions: TABLE 2, compound at 0.0806 mmol/m^2 in Part A of Layer 9, difference in speed versus check
Protocol: Surfactants, coating aids, emulsion addenda (including 4-hydroxy-6-methyl-1,3,3a,7-tetra-azaindene), sequestrants, thickeners, lubricants, matte and tinting dyes were added to the appropriate layers as is common in the art. Formulae for the identified compounds are provided at the end of these examples. • Layer 1 (Antihalation layer): gelatin at 1.08, colloidal gray silver at 0.150; ILS-1 at 0.097; DYE-1 at 0.029; DYE-2 at 0.065; DYE-3 at 0.021; CH-1 at 0.025 and UV-1 at 0.075. • Layer 2 (Slow cyan layer): a blend of two red-sensitized (all with a mixture of RSD-1 and RSD-2) tabular silver iodobromide emulsions: (i) 0.81×0.11 μm, 4.5 mol % I at 0.400, (ii) 0.62×0.111 μm, 4.1 mol % iodide at 0.175; cyan dye-forming couplers C-1 at 0.248 and C-2 at 0.236; bleach accelerator-releasing coupler B-1 at 0.086; image-modifier DIR-1 at 0.032; OxDS-1 at 0.010 and gelatin at 1.08. • Layer 3 (Mid cyan layer): a red-sensitized (with a mixture of RSD-1 and RSD-2) iodobromide tabular emulsion (1.44×0.13 μm, 3.7 mol % I) at 0.572; C-1 at 0.265; C-2 at 0.103; B-1 at 0.011; DIR-2 at 0.043; masking coupler MC-1 at 0.022 and gelatin at 1.08. • Layer 4 (Fast cyan layer): a red-sensitized (with a mixture of RSD-1, RSD-2 and RSD-3) iodobromide tabular emulsion (2.41×0.13 μm, 3.7 mol % I) at 1.286; C-1 at 0.163; DIR-2 at 0.0.054; B-1 at 0.008 and gelatin at 1.08. […]

Row | Structure (SMILES) | Granularity (×10^3) [1] | Δ Speed (stops) [2]
1 | CCC(C)(C)c1ccc(OCC(=O)Nc2ccc(S(=O)(=O)Nc3nccs3)cc2)c(C(C)(C)CC)c1 [CC3, reference compound] | 20 ×10^3 | –
2 | CCCCCCCCCCCCCCCc1cccc(OC(CC)C(=O)Nc2ncc(S(=O)(=O)CCCC)s2)c1 (stereo not shown) [SGA8] | 20 ×10^3 | –
3 | CCCCCCCCCCCCCCCc1cccc(OC(CC)C(=O)Nc2ncc(SCCCC)s2)c1 (stereo not shown) [SGA7] | 20 ×10^3 | 0.17 stops
4 | CCC(C)(C)c1ccc(OCC(=O)Nc2ccc(S(=O)(=O)Nc3nccc(C)n3)cc2)c(C(C)(C)CC)c1 [SGA32] | 21 ×10^3 | 0.20 stops
5 | CCCCCCCCCCCCCCCc1cccc(OC(CC)C(=O)Nc2ncc(C=O)s2)c1 (stereo not shown) [SGA6] | 20 ×10^3 | 0.23 stops
6 | CCCCCCCCCCCCCCCc1cccc(OC(CC)C(=O)Nc2ccc(SCCCC)nn2)c1 (stereo not shown) [SGA42] | 20 ×10^3 | 0.20 stops
